Measurements from the supplement of paper PMC12823440, “Inhibitors supercharge kinase turnover through native proteolytic circuits” (Nature, 2025).
Structures can show the parent of a compound that is named as a salt. The list shows a part of the results. Hit calls seldom repeat between salt and free forms of one compound.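 Kinases were expressed as nanoluciferase fusions in K562 cells and luminescence was read every 4 h between 2 and 18 h as percent of control, DMSO set to 100% and a positive control to 0%. A time point counts as decreased when the signal drops significantly (2 sigma). The hit call is the authors' own, does not follow from the count of time points alone, and its rule is not shown.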

The chains behind the UniProt entries cited, without tags or fusion partners. Where a name states a change or a piece, a line headed by the entry shows the natural chain unless it says otherwise.
UniProt O75460: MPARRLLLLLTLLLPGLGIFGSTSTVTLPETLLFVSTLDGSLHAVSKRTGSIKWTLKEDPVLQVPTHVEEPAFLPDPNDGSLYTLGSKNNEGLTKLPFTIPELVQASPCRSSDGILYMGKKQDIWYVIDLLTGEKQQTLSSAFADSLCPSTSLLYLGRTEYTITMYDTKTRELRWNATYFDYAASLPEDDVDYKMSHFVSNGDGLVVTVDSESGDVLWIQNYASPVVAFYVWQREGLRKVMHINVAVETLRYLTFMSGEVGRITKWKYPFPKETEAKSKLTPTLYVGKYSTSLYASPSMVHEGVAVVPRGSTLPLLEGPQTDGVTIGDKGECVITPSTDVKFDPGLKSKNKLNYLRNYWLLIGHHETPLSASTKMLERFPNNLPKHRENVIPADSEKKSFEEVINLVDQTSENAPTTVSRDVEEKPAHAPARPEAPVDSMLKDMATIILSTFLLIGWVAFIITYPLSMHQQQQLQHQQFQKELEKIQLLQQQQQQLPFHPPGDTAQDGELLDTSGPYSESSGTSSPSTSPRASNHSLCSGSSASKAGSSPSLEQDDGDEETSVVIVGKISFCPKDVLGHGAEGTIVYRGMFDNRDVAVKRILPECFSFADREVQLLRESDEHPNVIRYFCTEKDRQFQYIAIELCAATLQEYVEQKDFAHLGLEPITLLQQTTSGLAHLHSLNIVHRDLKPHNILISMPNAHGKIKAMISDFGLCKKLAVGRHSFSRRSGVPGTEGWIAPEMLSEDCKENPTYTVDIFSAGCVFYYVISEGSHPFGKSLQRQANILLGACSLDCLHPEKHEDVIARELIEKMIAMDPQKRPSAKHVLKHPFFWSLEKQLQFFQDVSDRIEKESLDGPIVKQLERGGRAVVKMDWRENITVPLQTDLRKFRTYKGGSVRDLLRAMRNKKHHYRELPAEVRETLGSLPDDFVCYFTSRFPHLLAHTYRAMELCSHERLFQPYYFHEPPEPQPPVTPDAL
UniProt P21802, whole entry, looked up: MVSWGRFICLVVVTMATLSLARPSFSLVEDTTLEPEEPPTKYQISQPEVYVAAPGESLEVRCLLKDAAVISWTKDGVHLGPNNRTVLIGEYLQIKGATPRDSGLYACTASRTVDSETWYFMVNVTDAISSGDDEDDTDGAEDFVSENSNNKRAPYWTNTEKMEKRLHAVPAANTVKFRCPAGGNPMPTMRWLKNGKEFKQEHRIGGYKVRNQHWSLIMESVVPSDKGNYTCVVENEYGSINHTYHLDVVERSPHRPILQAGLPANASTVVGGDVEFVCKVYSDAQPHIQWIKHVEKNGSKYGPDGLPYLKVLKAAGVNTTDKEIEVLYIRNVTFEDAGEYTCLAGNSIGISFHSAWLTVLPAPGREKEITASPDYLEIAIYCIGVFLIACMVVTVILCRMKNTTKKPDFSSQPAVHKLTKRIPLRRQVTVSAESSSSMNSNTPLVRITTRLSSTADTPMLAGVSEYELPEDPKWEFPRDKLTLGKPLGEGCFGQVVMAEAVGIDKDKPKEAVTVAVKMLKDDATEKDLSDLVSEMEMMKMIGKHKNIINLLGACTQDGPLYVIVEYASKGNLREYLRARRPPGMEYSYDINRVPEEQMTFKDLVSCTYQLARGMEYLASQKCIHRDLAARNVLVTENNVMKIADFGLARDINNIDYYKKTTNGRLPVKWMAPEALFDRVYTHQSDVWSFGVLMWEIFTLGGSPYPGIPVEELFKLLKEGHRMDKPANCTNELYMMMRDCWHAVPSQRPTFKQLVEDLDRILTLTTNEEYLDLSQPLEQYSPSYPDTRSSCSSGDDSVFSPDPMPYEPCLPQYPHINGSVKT
UniProt P06241, whole entry, looked up: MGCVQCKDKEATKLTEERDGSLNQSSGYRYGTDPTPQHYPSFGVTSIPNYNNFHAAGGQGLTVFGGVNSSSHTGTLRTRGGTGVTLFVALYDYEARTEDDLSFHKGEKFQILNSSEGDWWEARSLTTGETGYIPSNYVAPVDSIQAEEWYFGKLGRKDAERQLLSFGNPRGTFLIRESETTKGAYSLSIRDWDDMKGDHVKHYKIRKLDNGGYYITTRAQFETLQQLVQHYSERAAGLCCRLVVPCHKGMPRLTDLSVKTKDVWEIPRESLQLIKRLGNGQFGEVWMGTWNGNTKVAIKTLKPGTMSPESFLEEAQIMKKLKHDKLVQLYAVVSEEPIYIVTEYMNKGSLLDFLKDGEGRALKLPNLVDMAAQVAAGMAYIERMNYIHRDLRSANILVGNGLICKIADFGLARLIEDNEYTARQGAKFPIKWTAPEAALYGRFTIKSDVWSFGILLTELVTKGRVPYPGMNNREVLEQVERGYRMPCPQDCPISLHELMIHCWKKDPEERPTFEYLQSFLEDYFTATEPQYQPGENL
UniProt P49840: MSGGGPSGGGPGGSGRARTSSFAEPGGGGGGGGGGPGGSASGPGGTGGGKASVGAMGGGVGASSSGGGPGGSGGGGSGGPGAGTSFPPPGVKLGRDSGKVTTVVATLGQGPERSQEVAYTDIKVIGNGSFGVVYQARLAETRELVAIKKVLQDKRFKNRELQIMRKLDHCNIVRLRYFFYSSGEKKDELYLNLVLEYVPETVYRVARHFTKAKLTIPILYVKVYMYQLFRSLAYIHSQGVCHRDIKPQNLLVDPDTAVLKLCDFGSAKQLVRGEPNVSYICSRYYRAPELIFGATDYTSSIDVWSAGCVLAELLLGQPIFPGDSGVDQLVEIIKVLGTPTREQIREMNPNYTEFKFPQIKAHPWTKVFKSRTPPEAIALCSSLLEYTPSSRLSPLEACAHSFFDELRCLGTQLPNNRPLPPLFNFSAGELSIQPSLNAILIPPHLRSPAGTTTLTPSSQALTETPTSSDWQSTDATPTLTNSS
UniProt P14616: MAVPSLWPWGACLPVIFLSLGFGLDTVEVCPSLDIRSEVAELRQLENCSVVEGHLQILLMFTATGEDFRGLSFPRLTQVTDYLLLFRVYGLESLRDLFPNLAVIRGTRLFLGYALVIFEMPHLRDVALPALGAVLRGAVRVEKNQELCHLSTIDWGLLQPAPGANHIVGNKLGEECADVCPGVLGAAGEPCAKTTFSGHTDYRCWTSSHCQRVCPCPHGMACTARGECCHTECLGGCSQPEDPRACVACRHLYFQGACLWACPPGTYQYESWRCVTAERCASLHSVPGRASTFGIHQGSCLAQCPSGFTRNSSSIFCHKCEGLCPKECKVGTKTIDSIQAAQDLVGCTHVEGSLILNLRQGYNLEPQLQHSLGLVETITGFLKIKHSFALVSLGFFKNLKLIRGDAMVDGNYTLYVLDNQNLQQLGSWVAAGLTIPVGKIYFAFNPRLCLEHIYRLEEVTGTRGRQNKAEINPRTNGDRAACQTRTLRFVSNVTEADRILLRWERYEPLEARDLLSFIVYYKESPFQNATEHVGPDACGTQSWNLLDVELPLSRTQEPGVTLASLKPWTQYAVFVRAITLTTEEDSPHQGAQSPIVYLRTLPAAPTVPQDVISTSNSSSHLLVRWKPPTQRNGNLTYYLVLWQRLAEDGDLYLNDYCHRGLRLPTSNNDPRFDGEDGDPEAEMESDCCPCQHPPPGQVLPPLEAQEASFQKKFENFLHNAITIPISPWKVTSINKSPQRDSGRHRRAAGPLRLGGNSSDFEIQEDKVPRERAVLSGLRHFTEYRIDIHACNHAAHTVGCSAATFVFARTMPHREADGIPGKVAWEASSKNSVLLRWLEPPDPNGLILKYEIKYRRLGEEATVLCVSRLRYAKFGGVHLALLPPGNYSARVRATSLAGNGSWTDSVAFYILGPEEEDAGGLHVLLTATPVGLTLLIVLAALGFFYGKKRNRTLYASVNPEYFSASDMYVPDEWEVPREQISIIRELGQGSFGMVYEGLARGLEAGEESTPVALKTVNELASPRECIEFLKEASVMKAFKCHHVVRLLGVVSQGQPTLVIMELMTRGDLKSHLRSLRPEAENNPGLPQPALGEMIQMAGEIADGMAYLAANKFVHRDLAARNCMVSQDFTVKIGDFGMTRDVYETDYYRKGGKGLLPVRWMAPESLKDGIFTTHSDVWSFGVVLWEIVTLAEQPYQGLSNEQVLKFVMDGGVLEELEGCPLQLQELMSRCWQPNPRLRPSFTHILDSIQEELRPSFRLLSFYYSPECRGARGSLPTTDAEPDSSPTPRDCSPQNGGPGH
UniProt P06239: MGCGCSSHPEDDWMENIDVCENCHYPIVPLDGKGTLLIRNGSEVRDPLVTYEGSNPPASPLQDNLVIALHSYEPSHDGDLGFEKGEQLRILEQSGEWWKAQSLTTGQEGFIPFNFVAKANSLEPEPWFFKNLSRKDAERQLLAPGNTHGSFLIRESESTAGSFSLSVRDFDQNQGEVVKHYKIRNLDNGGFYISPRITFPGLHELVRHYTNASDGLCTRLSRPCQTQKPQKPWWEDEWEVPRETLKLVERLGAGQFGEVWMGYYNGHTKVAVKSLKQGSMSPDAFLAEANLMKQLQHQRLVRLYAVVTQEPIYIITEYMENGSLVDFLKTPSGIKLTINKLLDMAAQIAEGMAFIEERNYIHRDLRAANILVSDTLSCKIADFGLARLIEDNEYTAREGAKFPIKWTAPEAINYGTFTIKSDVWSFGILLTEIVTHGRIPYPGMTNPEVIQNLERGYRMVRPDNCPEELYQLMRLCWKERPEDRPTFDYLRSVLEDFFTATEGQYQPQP
UniProt P53671: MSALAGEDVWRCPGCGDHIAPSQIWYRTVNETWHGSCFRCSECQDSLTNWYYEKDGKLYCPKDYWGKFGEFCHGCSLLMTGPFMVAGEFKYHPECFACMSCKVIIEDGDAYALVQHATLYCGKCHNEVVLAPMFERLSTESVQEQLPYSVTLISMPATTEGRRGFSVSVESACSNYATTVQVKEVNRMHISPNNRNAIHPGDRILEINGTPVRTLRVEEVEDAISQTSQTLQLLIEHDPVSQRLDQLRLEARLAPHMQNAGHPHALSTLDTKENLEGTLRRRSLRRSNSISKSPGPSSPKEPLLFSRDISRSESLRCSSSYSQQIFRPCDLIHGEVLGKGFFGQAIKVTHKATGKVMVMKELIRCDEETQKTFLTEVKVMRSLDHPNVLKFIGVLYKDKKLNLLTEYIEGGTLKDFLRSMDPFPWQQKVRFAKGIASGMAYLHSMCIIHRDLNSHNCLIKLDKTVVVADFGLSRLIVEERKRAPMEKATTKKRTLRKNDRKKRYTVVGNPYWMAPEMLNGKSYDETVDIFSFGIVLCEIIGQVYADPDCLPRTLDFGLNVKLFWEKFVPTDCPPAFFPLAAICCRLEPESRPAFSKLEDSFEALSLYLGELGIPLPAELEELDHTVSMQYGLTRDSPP
UniProt P07948: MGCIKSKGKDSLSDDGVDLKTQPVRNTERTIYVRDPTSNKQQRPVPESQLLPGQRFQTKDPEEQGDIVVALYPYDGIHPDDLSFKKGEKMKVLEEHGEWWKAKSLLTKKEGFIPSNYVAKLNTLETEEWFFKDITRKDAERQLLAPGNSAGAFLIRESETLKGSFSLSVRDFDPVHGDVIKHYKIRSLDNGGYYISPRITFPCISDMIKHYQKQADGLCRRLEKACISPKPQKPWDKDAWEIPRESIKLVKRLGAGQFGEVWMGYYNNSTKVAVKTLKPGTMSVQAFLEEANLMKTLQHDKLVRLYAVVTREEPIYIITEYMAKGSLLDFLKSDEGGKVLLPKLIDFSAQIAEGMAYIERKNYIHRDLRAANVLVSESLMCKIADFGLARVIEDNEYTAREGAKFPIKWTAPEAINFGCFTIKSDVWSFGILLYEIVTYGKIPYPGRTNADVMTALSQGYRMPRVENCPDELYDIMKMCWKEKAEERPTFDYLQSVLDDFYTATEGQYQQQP
UniProt Q12851: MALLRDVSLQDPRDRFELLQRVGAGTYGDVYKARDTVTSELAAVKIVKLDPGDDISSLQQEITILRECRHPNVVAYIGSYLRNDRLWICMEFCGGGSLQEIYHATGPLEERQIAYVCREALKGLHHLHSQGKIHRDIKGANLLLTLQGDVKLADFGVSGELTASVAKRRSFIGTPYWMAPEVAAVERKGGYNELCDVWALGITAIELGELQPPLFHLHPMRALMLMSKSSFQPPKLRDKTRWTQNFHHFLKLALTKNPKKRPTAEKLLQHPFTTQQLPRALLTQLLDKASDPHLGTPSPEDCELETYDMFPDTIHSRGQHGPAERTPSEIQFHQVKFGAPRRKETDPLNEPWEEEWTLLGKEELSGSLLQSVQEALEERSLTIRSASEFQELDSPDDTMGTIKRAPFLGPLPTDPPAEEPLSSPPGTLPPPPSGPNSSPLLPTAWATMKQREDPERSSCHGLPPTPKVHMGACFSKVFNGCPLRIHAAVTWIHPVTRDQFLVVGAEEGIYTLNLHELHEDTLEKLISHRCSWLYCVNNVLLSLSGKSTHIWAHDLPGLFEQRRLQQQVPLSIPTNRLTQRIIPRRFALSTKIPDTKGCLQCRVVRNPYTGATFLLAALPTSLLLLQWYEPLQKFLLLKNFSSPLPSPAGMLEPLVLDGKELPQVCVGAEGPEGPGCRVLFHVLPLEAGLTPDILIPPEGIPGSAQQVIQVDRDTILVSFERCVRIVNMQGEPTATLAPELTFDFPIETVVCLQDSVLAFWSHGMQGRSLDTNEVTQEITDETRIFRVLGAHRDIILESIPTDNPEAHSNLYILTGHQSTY

Experiments:
Test in all cases: kinase-Nluc reporter destabilization hit call (1 = scored as downregulated) (binary); higher = compound decreases kinase abundance
Details in all cases: K562; 2-18 h
ERN1 = ERN1 (UniProt O75460)
FGFR1 = FGFR1 (UniProt P11362)
FGFR2 = FGFR2 (UniProt P21802)
FGFR3 = FGFR3 (UniProt P22607)
FGR = FGR (UniProt P09769)
FLT3 = FLT3 (UniProt P36888)
FYN = FYN (UniProt P06241)
GSK3A = GSK3A (UniProt P49840)
HER2 = HER2 (UniProt P04626)
INSRR = INSRR (UniProt P14616)
IRAK3 = IRAK3 (UniProt Q9Y616)
JAK1 = JAK1 (UniProt P23458)
LCK = LCK (UniProt P06239)
LIMK1 = LIMK1 (UniProt P53667)
LIMK2 = LIMK2 (UniProt P53671)
LMTK2 = LMTK2 (UniProt Q8IWU2)
LYN = LYN (UniProt P07948)
MAP2K1 = MAP2K1 (UniProt Q02750)
MAP2K2 = MAP2K2 (UniProt P36507)
MAP4K2 = MAP4K2 (UniProt Q12851)

Measured: kinase-Nluc reporter destabilization hit call

N#C/C(=C\c1ccc(O)c(O)c1)C(=O)NCCCc1ccccc1 (10 µM)
inactive: ERN1 = 0 | FGFR1 = 0 | FGFR2 = 0 | FGFR3 = 0 | FGR 0 | FLT3 = 0 | FYN 0 | GSK3A 0 | HER2 = 0 | INSRR 0 | IRAK3 = 0 | JAK1 = 0 | LCK 0 | LIMK1 = 0 | LIMK2 = 0 | LMTK2 = 0 | LYN 0 | MAP2K1 = 0 | MAP2K2 = 0 | MAP4K2 = 0

Cc1nc(N)sc1-c1ccnc(Nc2ccc(N3CCOCC3)cc2)n1 (10 µM)
inactive: ERN1 = 0 | FGFR1 = 0 | FGFR2 = 0 | FGFR3 = 0 | FGR 0 | FLT3 = 0 | FYN 0 | GSK3A 0 | HER2 = 0 | INSRR 0 | IRAK3 = 0 | JAK1 = 0 | LCK 0 | LIMK1 = 0 | LIMK2 = 0 | LMTK2 = 0 | LYN 0 | MAP2K1 = 0 | MAP2K2 = 0 | MAP4K2 = 0

CCCCC[C@H](O)CC(=O)CCc1ccc(O)c(OC)c1 [[6]-Gingerol] (10 µM)
inactive: ERN1 = 0 | FGFR1 = 0 | FGFR2 = 0 | FGFR3 = 0 | FGR 0 | FLT3 = 0 | FYN 0 | GSK3A 0 | HER2 = 0 | INSRR 0 | IRAK3 = 0 | JAK1 = 0 | LCK 0 | LIMK1 = 0 | LIMK2 = 0 | LMTK2 = 0 | LYN 0 | MAP2K1 = 0 | MAP2K2 = 0 | MAP4K2 = 0

NS(=O)(=O)c1ccc(Nc2nc(OCC3CCCCC3)c3[nH]cnc3n2)cc1 (10 µM)
inactive: ERN1 = 0 | FGFR1 = 0 | FGFR2 = 0 | FGFR3 = 0 | FGR 0 | FLT3 = 0 | FYN 0 | GSK3A 0 | HER2 = 0 | INSRR 0 | IRAK3 = 0 | JAK1 = 0 | LCK 0 | LIMK1 = 0 | LIMK2 = 0 | LMTK2 = 0 | LYN 0 | MAP2K1 = 0 | MAP2K2 = 0 | MAP4K2 = 0

CN(C)CCOc1ccc(-c2nc(-c3ccncc3)c(-c3ccc4c(c3)CC/C4=N\O)[nH]2)cc1 (10 µM)
inactive: ERN1 = 0 | FGFR1 = 0 | FGFR2 = 0 | FGFR3 = 0 | FGR 0 | FLT3 = 0 | FYN 0 | GSK3A 0 | HER2 = 0 | INSRR 0 | IRAK3 = 0 | JAK1 = 0 | LCK 0 | LIMK1 = 0 | LIMK2 = 0 | LMTK2 = 0 | LYN 0 | MAP2K1 = 0 | MAP2K2 = 0 | MAP4K2 = 0

CC(C)n1cnc2c(NCc3cccc(C(F)(F)F)c3)ncnc21 [Longdaysin] (10 µM)
inactive: ERN1 = 0 | FGFR1 = 0 | FGFR2 = 0 | FGFR3 = 0 | FGR 0 | FLT3 = 0 | FYN 0 | GSK3A 0 | HER2 = 0 | INSRR 0 | IRAK3 = 0 | JAK1 = 0 | LCK 0 | LIMK1 = 0 | LIMK2 = 0 | LMTK2 = 0 | LYN 0 | MAP2K1 = 0 | MAP2K2 = 0 | MAP4K2 = 0

CCn1c(=O)c2cc(C(N)=O)c(N)nc2n(C2CC2)c1=O (10 µM)
inactive: ERN1 = 0 | FGFR1 = 0 | FGFR2 = 0 | FGFR3 = 0 | FGR 0 | FLT3 = 0 | FYN 0 | GSK3A 0 | HER2 = 0 | INSRR 0 | IRAK3 = 0 | JAK1 = 0 | LCK 0 | LIMK1 = 0 | LIMK2 = 0 | LMTK2 = 0 | LYN 0 | MAP2K1 = 0 | MAP2K2 = 0 | MAP4K2 = 0

COc1cc(OC)cc(-c2cc3cnc(N)nc3nc2NC(=O)NC(C)(C)C)c1 (10 µM)
inactive: ERN1 = 0 | FGFR1 = 0 | FGFR2 = 0 | FGFR3 = 0 | FGR 0 | FLT3 = 0 | FYN 0 | GSK3A 0 | HER2 = 0 | INSRR 0 | IRAK3 = 0 | JAK1 = 0 | LCK 0 | LIMK1 = 0 | LIMK2 = 0 | LMTK2 = 0 | LYN 0 | MAP2K1 = 0 | MAP2K2 = 0 | MAP4K2 = 0

CN1CCC(Nc2ncc3ncnc(Nc4ccc(F)c(Cl)c4)c3n2)CC1 [Falnidamol] (10 µM)
inactive: ERN1 = 0 | FGFR1 = 0 | FGFR2 = 0 | FGFR3 = 0 | FGR 0 | FLT3 = 0 | FYN 0 | GSK3A 0 | HER2 = 0 | INSRR 0 | IRAK3 = 0 | JAK1 = 0 | LCK 0 | LIMK1 = 0 | LIMK2 = 0 | LMTK2 = 0 | LYN 0 | MAP2K1 = 0 | MAP2K2 = 0 | MAP4K2 = 0

O=C1NC(=NCc2cccs2)S/C1=C\c1ccc2ncccc2c1 (10 µM)
inactive: ERN1 = 0 | FGFR1 = 0 | FGFR2 = 0 | FGFR3 = 0 | FGR 0 | FLT3 = 0 | FYN 0 | GSK3A 0 | HER2 = 0 | INSRR 0 | IRAK3 = 0 | JAK1 = 0 | LCK 0 | LIMK1 = 0 | LIMK2 = 0 | LMTK2 = 0 | LYN 0 | MAP2K1 = 0 | MAP2K2 = 0 | MAP4K2 = 0

Cc1c(C(=O)N2CCOc3ccc(-c4ccc(N)nc4)cc3C2)ccc(S(C)(=O)=O)c1F (10 µM)
inactive: ERN1 = 0 | FGFR1 = 0 | FGFR2 = 0 | FGFR3 = 0 | FGR 0 | FLT3 = 0 | FYN 0 | GSK3A 0 | HER2 = 0 | INSRR 0 | IRAK3 = 0 | JAK1 = 0 | LCK 0 | LIMK1 = 0 | LIMK2 = 0 | LMTK2 = 0 | LYN 0 | MAP2K1 = 0 | MAP2K2 = 0 | MAP4K2 = 0

CCC(=O)N1CCN(c2ccc(-n3c(=O)ccc4cnc5ccc(-c6cnc7ccccc7c6)cc5c43)cc2C(F)(F)F)CC1 [Torin 1] (2 µM)
inactive: ERN1 = 0 | FGFR1 = 0 | FGFR3 = 0 | FGR 0 | FLT3 = 0 | FYN 0 | GSK3A 0 | HER2 = 0 | INSRR 0 | IRAK3 = 0 | JAK1 = 0 | LCK 0 | LIMK1 = 0 | LIMK2 = 0 | LMTK2 = 0 | LYN 0 | MAP2K1 = 0 | MAP2K2 = 0 | MAP4K2 = 0
active: FGFR2 = 1

Brc1c(Br)c(Br)c2n[nH]nc2c1Br (10 µM)
inactive: ERN1 = 0 | FGFR1 = 0 | FGFR2 = 0 | FGFR3 = 0 | FGR 0 | FLT3 = 0 | FYN 0 | GSK3A 0 | HER2 = 0 | INSRR 0 | IRAK3 = 0 | JAK1 = 0 | LCK 0 | LIMK1 = 0 | LIMK2 = 0 | LMTK2 = 0 | LYN 0 | MAP2K1 = 0 | MAP2K2 = 0 | MAP4K2 = 0

NC(=O)c1ccc(-c2nc(-c3ccccn3)c(-c3ccc4c(c3)OCO4)[nH]2)cc1 (10 µM)
inactive: ERN1 = 0 | FGFR1 = 0 | FGFR2 = 0 | FGFR3 = 0 | FGR 0 | FLT3 = 0 | FYN 0 | GSK3A 0 | HER2 = 0 | INSRR 0 | IRAK3 = 0 | JAK1 = 0 | LCK 0 | LIMK1 = 0 | LIMK2 = 0 | LMTK2 = 0 | LYN 0 | MAP2K1 = 0 | MAP2K2 = 0 | MAP4K2 = 0

CC1(C)CC=C(c2nc(C3CC(C)(C)OC(C)(C)C3)ccc2NC(=O)c2nc(C#N)c[nH]2)CC1 [Edicotinib] (2.5 µM)
inactive: ERN1 = 0 | FGFR1 = 0 | FGFR2 = 0 | FGFR3 = 0 | FGR 0 | FLT3 = 0 | FYN 0 | GSK3A 0 | HER2 = 0 | INSRR 0 | IRAK3 = 0 | JAK1 = 0 | LCK 0 | LIMK1 = 0 | LIMK2 = 0 | LMTK2 = 0 | LYN 0 | MAP2K1 = 0 | MAP2K2 = 0 | MAP4K2 = 0

Retrieved by structure from the list above, 2 records:
Brc1c(Br)c(Br)c2n[nH]nc2c1Br (10 µM)
inactive: ERN1 = 0 | FGFR1 = 0 | FGFR2 = 0 | FGFR3 = 0 | FGR 0 | FLT3 = 0 | FYN 0 | GSK3A 0 | HER2 = 0 | INSRR 0 | IRAK3 = 0 | JAK1 = 0 | LCK 0 | LIMK1 = 0 | LIMK2 = 0 | LMTK2 = 0 | LYN 0 | MAP2K1 = 0 | MAP2K2 = 0 | MAP4K2 = 0

CCC(=O)N1CCN(c2ccc(-n3c(=O)ccc4cnc5ccc(-c6cnc7ccccc7c6)cc5c43)cc2C(F)(F)F)CC1 [Torin 1] (2 µM)
inactive: ERN1 = 0 | FGFR1 = 0 | FGFR3 = 0 | FGR 0 | FLT3 = 0 | FYN 0 | GSK3A 0 | HER2 = 0 | INSRR 0 | IRAK3 = 0 | JAK1 = 0 | LCK 0 | LIMK1 = 0 | LIMK2 = 0 | LMTK2 = 0 | LYN 0 | MAP2K1 = 0 | MAP2K2 = 0 | MAP4K2 = 0
active: FGFR2 = 1

Further results follow:

CN(C)Cc1ccc(-c2cnn3c(-c4cccc(NC(=O)c5cccc(C(F)(F)F)c5)c4)ccnc23)cc1 (2.5 µM)
inactive: ERN1 = 0 | FGFR1 = 0 | FGFR2 = 0 | FGFR3 = 0 | FGR 0 | FLT3 = 0 | FYN 0 | GSK3A 0 | INSRR 0 | IRAK3 = 0 | JAK1 = 0 | LCK 0 | LIMK1 = 0 | LIMK2 = 0 | LMTK2 = 0 | LYN 0 | MAP2K1 = 0 | MAP2K2 = 0 | MAP4K2 = 0
active: HER2 = 1

c1cc(OCCN2CCCCC2)cc(-c2n[nH]c3ccc(-c4nnc[nH]4)cc23)c1 [CC-401 (hydrochloride)] (10 µM)
inactive: ERN1 = 0 | FGFR1 = 0 | FGFR2 = 0 | FGFR3 = 0 | FGR 0 | FLT3 = 0 | FYN 0 | GSK3A 0 | HER2 = 0 | INSRR 0 | IRAK3 = 0 | JAK1 = 0 | LCK 0 | LIMK1 = 0 | LIMK2 = 0 | LMTK2 = 0 | LYN 0 | MAP2K1 = 0 | MAP2K2 = 0 | MAP4K2 = 0

CCOc1cc2ncc(-c3cc(N)nc(F)c3)n2cc1S(=O)(=O)C(C)(C)C (10 µM)
inactive: ERN1 = 0 | FGFR1 = 0 | FGFR2 = 0 | FGFR3 = 0 | FGR 0 | FLT3 = 0 | FYN 0 | GSK3A 0 | HER2 = 0 | INSRR 0 | IRAK3 = 0 | JAK1 = 0 | LCK 0 | LIMK1 = 0 | LIMK2 = 0 | LMTK2 = 0 | LYN 0 | MAP2K1 = 0 | MAP2K2 = 0 | MAP4K2 = 0

O=C(c1ccc(-c2ccc(Cl)cc2)o1)N(Cc1ccccn1)c1ccc(N2CCNCC2)cc1 [MK2-IN-1 (hydrochloride)] (10 µM)
inactive: ERN1 = 0 | FGFR1 = 0 | FGFR2 = 0 | FGFR3 = 0 | FGR 0 | FLT3 = 0 | FYN 0 | GSK3A 0 | HER2 = 0 | INSRR 0 | IRAK3 = 0 | JAK1 = 0 | LCK 0 | LIMK1 = 0 | LIMK2 = 0 | LMTK2 = 0 | LYN 0 | MAP2K1 = 0 | MAP2K2 = 0 | MAP4K2 = 0
